Test results: the supplement of paper PMC3047530
Some of the results follow. Single values are uncertain, as repeats are few or missing.

What follows are compounds tested on Geomyces destructans (assay: growth inhibition relative to DMSO control; higher = stronger growth inhibition). Settings: 10 µM; 15 °C; incubation time 10 days.
In the case of C=C(C)C1(O)OC(=O)C=C1OC (configuration not stated), the growth inhibition is reported as -12.2%.
In the case of O=C(N[C@H](CO)[C@H](O)c1ccc([N+](=O)[O-])cc1)C(Cl)Cl, the growth inhibition is reported as -12.5%.
O=C(O)CCNC(=O)c1ccccc1 was tested, and the growth inhibition was -34.1%.
With CCC[C@@H]1C[C@@H](C(=O)N[C@@H]([C@H]2O[C@H](SC)[C@H](O)[C@@H](O)[C@H]2O)[C@H](C)Cl)N(C)C1 the growth inhibition was -4.04%.
Cn1cnc2c1c(=O)[nH]c(=O)n2C showed a growth inhibition of -28.9%.
CC1OC(OC2C(O)COC(OC3C(C)OC(OC4C(OC(=O)C56CCC(C)(C)CC5C5=CCC7C8(C)CCC(OC9OC(CO)C(O)C(O)C9O)C(C)(C)C8CCC7(C)C5(C)CC6O)OCC(O)C4O)C(O)C3O)C2O)C(O)C(O)C1O (configuration not stated) showed a growth inhibition of 1.71%.
For CC1=NN(c2ccccc2)C(=O)C1, the growth inhibition was -6.05%.
Compound CCN(CC)CCNC(=O)c1cc(Cl)c(N)cc1OC has a growth inhibition of -6.04%.
With CC1=CC(=O)C(C(C)C)=CC1=O the growth inhibition was -9.44%.
OCc1cccnc1 showed a growth inhibition of -14.4%.
For CN(C)CCC=C1c2ccccc2COc2ccccc21, the growth inhibition was -22%.
Compound CC(C)[N+](C)(CCOC(=O)C1c2ccccc2Oc2ccccc21)C(C)C has a growth inhibition of -15.7%.
Work on CCCc1occc(=O)c1/C=C/O yielded a growth inhibition of 2.46%.
Work on Cc1cccc(C)c1OCC(C)N (configuration not stated) yielded a growth inhibition of -3.5%.
CC(C)(C)NCC(O)COc1cccc2nc(O)[nH]c12 (configuration not stated) gave a growth inhibition of -11.7%.
In the case of Cc1cc(=O)[nH]c(=S)[nH]1, the growth inhibition is reported as -4.37%.
NC[C@@H]1O[C@H](O[C@H]2[C@@H](O)[C@H](O[C@@H]3[C@@H](O)[C@H](N)C[C@H](N)[C@H]3O[C@H]3O[C@H](CO)[C@@H](O)[C@H](O)[C@H]3N)O[C@@H]2CO)[C@H](N)[C@@H](O)[C@@H]1O showed a growth inhibition of -5.04%.
For COc1cc(C)c2c(c1C=O)Oc1c(c(C)c(O)c3c1C(O)OC3=O)OC2=O (configuration not stated), the growth inhibition was -12.2%.
Work on COc1ccccc1OCC(O)CO (configuration not stated) yielded a growth inhibition of 1.31%.
Cc1c(N(C)C)c(=O)n(-c2ccccc2)n1C gave a growth inhibition of 7.2%.
For Oc1c(Cl)cc(Cl)c(Cl)c1Cc1c(O)c(Cl)cc(Cl)c1Cl, the growth inhibition was 2.07%.
CC(=O)N1CCCC1C(=O)O (configuration not stated) was tested, and the growth inhibition was -9.57%.
Work on CCOC(=O)C1=C(COCCN)NC(C)=C(C(=O)OC)C1c1ccccc1Cl (configuration not stated) yielded a growth inhibition of -41.6%.
Compound CCCCCCCCCCCCCCC(C(=O)O)C(O)(CC(=O)OC)C(=O)O (configuration not stated) has a growth inhibition of -5.92%.
Compound Oc1ccc(/C=C/c2cc(O)cc(O)c2)cc1 has a growth inhibition of -0.965%.
CN(C)C(=O)C(CCN1CCC(O)(c2ccc(Cl)cc2)CC1)(c1ccccc1)c1ccccc1 was tested, and the growth inhibition was -5.9%.
Nc1nc2[nH]cnc2c(=S)[nH]1 was tested, and the growth inhibition was -11.2%.
O=C1c2c(O)cccc2C([C@@H]2O[C@H](CO)[C@@H](O)[C@H](O)[C@H]2O)c2cc(CO)cc(O)c21 (some centres not stated) showed a growth inhibition of -2.5%.
CC(C(=O)O)c1ccc2c(c1)[nH]c1ccc(Cl)cc12 (configuration not stated) gave a growth inhibition of -21.1%.
For O=C(O)C1CCCNC1 (configuration not stated), the growth inhibition was -8.21%.
COc1cc([S+](C)[O-])ccc1-c1nc2cccnc2[nH]1 (configuration not stated) showed a growth inhibition of -24.5%.
C[C@H]1O[C@@H](O[C@H]2[C@@H](O)C[C@H](O[C@H]3[C@@H](O)C[C@H](O[C@H]4CC[C@@]5(C)[C@H](CC[C@@H]6[C@@H]5C[C@@H](O)[C@]5(C)[C@@H](C7=CC(=O)OC7)CC[C@]65O)C4)O[C@@H]3C)O[C@@H]2C)C[C@H](O)[C@@H]1O was tested, and the growth inhibition was 3.4%.
Compound O=C(OCC(O)CO)c1ccccc1Nc1ccnc2cc(Cl)ccc12 (configuration not stated) has a growth inhibition of -13%.
Compound CC(C(=O)O)c1ccc(-c2ccccc2)c(F)c1 (configuration not stated) has a growth inhibition of 25.1%.
With Cc1cc(O)c2c(c1)C(=O)c1cccc(O)c1C2=O the growth inhibition was 1.59%.
With O=c1ccc2cc(O)c(O)cc2o1 the growth inhibition was -4.75%.
C[C@H](CCC(=O)O)[C@H]1CC[C@H]2[C@@H]3[C@H](O)C[C@@H]4C[C@H](O)CC[C@]4(C)[C@H]3C[C@H](O)[C@]12C showed a growth inhibition of -1.87%.
Work on CC(=O)OC1CCC2(C)C(=CCC3C2CCC2(C)C(C(C)CCCC(C)C)CCC32)C1 (configuration not stated) yielded a growth inhibition of -17.7%.
CC(C)=CCC[C@@H](C)[C@H]1CC[C@@]2(C)C3=C(CC[C@]12C)[C@@]1(C)CC[C@H](O)C(C)(C)[C@@H]1CC3 was tested, and the growth inhibition was 2.91%.
For Oc1cc(O)c2c(c1)O[C@H](c1ccc(O)c(O)c1)[C@H](O)C2, the growth inhibition was -20.5%.
COc1ccc2c(c1)c(CC(=O)O)c(C)n2C(=O)c1ccc(Cl)cc1 showed a growth inhibition of 3.91%.
For O=C(O)[C@@H](O)[C@H](O)[C@H](O)[C@@H](O)C(=O)O, the growth inhibition was 0.397%.
O=C(C1CCCCC1)N1CC(=O)N2CCc3ccccc3C2C1 (configuration not stated) gave a growth inhibition of -20.6%.
With COc1ccc(-c2cc(=O)c3c(O)c(OC)c(O[C@@H]4O[C@H](CO[C@@H]5O[C@@H](C)[C@H](O)[C@@H](O)[C@H]5O)[C@@H](O)[C@H](O)[C@H]4O)cc3o2)cc1 the growth inhibition was -7.04%.
In the case of Cn1c(=O)[nH]c(=O)c2[nH]cnc21, the growth inhibition is reported as -11%.
Work on COc1ccc2c(c1OC)C(=O)O[C@@H]2[C@H]1c2c(cc3c(c2OC)OCO3)CCN1C yielded a growth inhibition of -10.5%.
O=C1C=C(O)C(=O)c2ccccc21 gave a growth inhibition of -3.52%.
With C=C1c2c(Cl)ccc(O)c2C(=O)C2=C(O)[C@]3(O)C(=O)C(C(N)=O)=C(O)[C@@H](N(C)C)[C@@H]3[C@@H](O)[C@H]12.O=C(O)c1cc(S(=O)(=O)O)ccc1O the growth inhibition was -12.2%.
Compound CNC[C@H](O)c1ccc(O)c(O)c1 has a growth inhibition of 0.0859%.
Compound COC(=O)C[C@H]1C(C)(C)C2(O)OC34CC2C(=O)[C@]1(C)C3CC[C@]1(C)C4=CC(=O)O[C@H]1c1ccoc1 (stereo partly drawn) [8beta-HYDROXYCARAPIN, 3,8-HEMIACETAL] has a growth inhibition of -5.07%.
Compound Cn1c(=O)c2nc(C3CCCC3)[nH]c2n(C)c1=O has a growth inhibition of -9.57%.
With C=CC(C)(O)CCC1C(=C)CC(OC(C)=O)C2C(C)(C)CCCC12C (configuration not stated) the growth inhibition was -5.73%.
CN1CCN(CCCN2c3ccccc3Sc3ccc(C(F)(F)F)cc32)CC1 gave a growth inhibition of -27.2%.
Compound COc1ccc(OC)c(C(O)CNC(=O)CN)c1 (configuration not stated) has a growth inhibition of -6.93%.
In the case of CC[C@H](C)[C@H](N)C1=N[C@H](C(=O)N[C@@H](CC(C)C)C(=O)N[C@H](CCC(=O)O)C(=O)N[C@H](C(=O)N[C@H]2CCCCNC(=O)[C@H](CC(N)=O)NC(=O)[C@@H](CC(=O)O)NC(=O)[C@H](Cc3cnc[nH]3)NC(=O)[C@@H](Cc3ccccc3)NC(=O)[C@H]([C@@H](C)CC)NC(=O)[C@@H](CCCN)NC2=O)[C@@H](C)CC)CS1, the growth inhibition is reported as -35.1%.
O=C(CCc1ccc(O)cc1)c1c(O)cc(O)cc1O showed a growth inhibition of 2.85%.
With C=CC(C1=CC(=O)C(OC)=CC1=O)c1ccc(OC)cc1 (configuration not stated) the growth inhibition was -6.42%.
With C[C@H]1[C@H](C)CC[C@]2(CO)CC[C@]3(C)C(=CC[C@@H]4[C@@]5(C)CC[C@H](O)C(C)(C)[C@@H]5CC[C@]43C)[C@H]12 the growth inhibition was -6.72%.
Compound COc1ccc(-c2cc(=O)c3cc(OC)ccc3o2)cc1 has a growth inhibition of 11.1%.
With CN(C)CCOC(C)(c1ccccc1)c1ccccn1 (configuration not stated) the growth inhibition was -7.97%.
With CC1(C)CC[C@]2(C)CC[C@]3(C)C(=CC[C@@H]4[C@@]5(C)CC[C@H](O)C(C)(C)[C@@H]5CC[C@]43C)[C@@H]2C1 [beta-AMYRIN] the growth inhibition was 3.94%.
In the case of CCCCCCc1ccc(O)cc1O.Nc1c2ccccc2nc2ccccc12, the growth inhibition is reported as -27.5%.
COC(=O)Nc1nc2cc(C(=O)c3ccccc3)ccc2[nH]1 gave a growth inhibition of -7.17%.
Work on CC1(C)S[C@@H]2[C@H](NC(=O)[C@H](NC(=O)N3CCNC3=O)c3ccccc3)C(=O)N2[C@H]1C(=O)O yielded a growth inhibition of -4.76%.
Work on NC(=O)c1cc[n+](CC2=C(C(=O)O)N3C(=O)[C@@H](NC(=O)[C@@H](c4ccccc4)S(=O)(=O)[O-])[C@H]3SC2)cc1 yielded a growth inhibition of -11.6%.
CC(CCc1ccccc1)NCC(O)c1ccc(O)c(C(N)=O)c1 (configuration not stated) gave a growth inhibition of -4.26%.
For CCOC(=O)[C@H](CCc1ccccc1)N[C@@H](C)C(=O)N1Cc2ccccc2C[C@H]1C(=O)O, the growth inhibition was -5.58%.
Compound CC(C)CCCCCOC(=O)COc1cc(Cl)c(Cl)cc1Cl has a growth inhibition of -11.7%.
COc1ccc(C(Cl)=C(c2ccc(OC)cc2)c2ccc(OC)cc2)cc1 gave a growth inhibition of 5.39%.
In the case of O=C(O)c1cccnc1Nc1cccc(C(F)(F)F)c1, the growth inhibition is reported as 0.462%.
CN(C)/N=N/c1[nH]cnc1C(N)=O was tested, and the growth inhibition was -7.18%.
Work on C[N+](C)(C)CCCCCC[N+](C)(C)C yielded a growth inhibition of -11.1%.
Work on CC[N+](C)(C)Cc1ccccc1Br yielded a growth inhibition of -2.37%.
With Cc1cc(O)c(C=O)c2c1C(=O)Oc1c(C)c(O)c3c(c1O2)C(O)OC3=O (configuration not stated) the growth inhibition was 1.97%.
Compound CN1C(C)(C)CCCC1(C)C has a growth inhibition of -28.1%.
Cc1onc(-c2c(Cl)cccc2Cl)c1C(=O)N[C@@H]1C(=O)N2[C@@H]1SC(C)(C)[C@@H]2C(=O)O was tested, and the growth inhibition was 1.78%.
O=C(Oc1cc(O)cc2c1C[C@@H](OC(=O)c1cc(O)c(O)c(O)c1)[C@@H](c1ccc(O)c(O)c1)O2)c1cc(O)c(O)c(O)c1 was tested, and the growth inhibition was -2.67%.
Work on CC(C)(C(=O)O)c1ccc(C(O)CCCN2CCC(C(O)(c3ccccc3)c3ccccc3)CC2)cc1 (configuration not stated) yielded a growth inhibition of -27.3%.
COc1c2ccoc2c(OC)c2oc(=O)ccc12 gave a growth inhibition of -27.9%.
COc1ccc([C@@H]2CC(=O)c3c(O)cc(O[C@@H]4O[C@H](CO[C@@H]5O[C@@H](C)[C@H](O)[C@@H](O)[C@H]5O)[C@@H](O)[C@H](O)[C@H]4O)cc3O2)cc1O gave a growth inhibition of 2.1%.
C[N+]1(C)C[C@H](O)C[C@H]1C(=O)[O-] was tested, and the growth inhibition was -8.53%.
C=CC(C1=CC(=O)C=CC1=O)c1ccccc1 (configuration not stated) gave a growth inhibition of 2.16%.
Work on CC(=O)OC1CCC2(C)C(CCC3C2CCC2(C)C3CC3OC4(CCC(C)CO4)C(C)C32)C1 (configuration not stated) yielded a growth inhibition of -1.75%.
CN(C)CCCN1c2ccccc2Sc2ccccc21 gave a growth inhibition of -12.6%.
For Cc1cc(C(C)(C)C)c(O)c(C)c1CC1=NCCN1, the growth inhibition was -15.1%.
COC(=O)[C@H]1[C@H]2C[C@H]3c4[nH]c5ccccc5c4CCN3C[C@@H]2CC[C@@H]1O gave a growth inhibition of 5.48%.
Work on CC(=O)Nc1ccccc1 yielded a growth inhibition of -8.46%.
For COc1ccc(-c2cc(=O)c3c(O)cc(O)c(-c4cc(-c5cc(=O)c6c(O)cc(O)cc6o5)ccc4OC)c3o2)cc1, the growth inhibition was -5.81%.
COc1ccc2c(=O)c(-c3cc4c(cc3OC)OCO4)coc2c1 was tested, and the growth inhibition was 0.0787%.
C[N+]1(C)[C@@H]2CC[C@H]1C[C@@H](OC(=O)C(O)c1ccccc1)C2 (some centres not stated) showed a growth inhibition of -0.678%.
COc1ccc2c(c1)OC1(O)COc3cc(OC)c(OC)cc3C1=C2 (configuration not stated) was tested, and the growth inhibition was -17%.
Work on Oc1ncnc2[nH]ncc12 yielded a growth inhibition of -26.1%.
